Only a part is listed here, and it is no random draw. For part of these data: At the low end of the ranking, values are background and their order means little. The list shows a part of the results. For part of these data: The source does not settle which construct or isoform was used.
Assays:
HSF1 = HSF1 (UniProt Q00613); experiment: DAPPL (digital affinity profiling via proximity ligation, sequencing); settings: 10 mM Tris-HCl pH 7.5, 50 mM NaCl, 1 mM DTT, 4% glycerol, room temperature, 30 min; GST-TFs on glutathione beads, 16-mer random dsDNA library, 0.1% …; high values mean tight binding; double strand, one strand shown; scale: fold enrichment (6-mer frequency, TF over GST control)
ELF2 = biological target: T1, ELF2 (UniProt Q15723); experiment: as above; settings: 10 mM Tris-HCl pH 7.5, 50 mM NaCl, 1 mM DTT, 4% glycerol, room temperature, 30 min; GST-TFs on glutathione beads, 16-mer random dsDNA library, 0.1% …; high values mean tight binding; double strand, one strand shown; scale: fold enrichment (6-mer frequency, TF over GST control)
T1 sequence: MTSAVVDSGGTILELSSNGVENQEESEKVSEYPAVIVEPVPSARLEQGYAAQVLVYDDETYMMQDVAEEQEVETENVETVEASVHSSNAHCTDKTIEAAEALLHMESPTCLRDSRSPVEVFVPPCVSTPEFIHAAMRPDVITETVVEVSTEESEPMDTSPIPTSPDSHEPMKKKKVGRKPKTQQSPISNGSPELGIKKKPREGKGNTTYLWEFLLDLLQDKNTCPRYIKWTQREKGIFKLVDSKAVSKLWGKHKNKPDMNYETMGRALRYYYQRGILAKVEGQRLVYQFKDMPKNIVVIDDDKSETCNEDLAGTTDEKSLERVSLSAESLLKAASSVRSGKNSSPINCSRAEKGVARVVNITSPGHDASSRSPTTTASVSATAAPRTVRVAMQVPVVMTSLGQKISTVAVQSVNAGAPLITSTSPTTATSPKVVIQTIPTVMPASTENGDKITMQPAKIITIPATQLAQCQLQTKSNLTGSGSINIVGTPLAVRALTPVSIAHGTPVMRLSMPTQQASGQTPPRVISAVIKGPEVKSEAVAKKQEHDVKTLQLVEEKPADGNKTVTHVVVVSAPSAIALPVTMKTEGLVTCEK

Amino acid sequences for entries named in this document (tags omitted). A change or cut given only in a name is not applied to a line headed by its entry.
UniProt Q00613: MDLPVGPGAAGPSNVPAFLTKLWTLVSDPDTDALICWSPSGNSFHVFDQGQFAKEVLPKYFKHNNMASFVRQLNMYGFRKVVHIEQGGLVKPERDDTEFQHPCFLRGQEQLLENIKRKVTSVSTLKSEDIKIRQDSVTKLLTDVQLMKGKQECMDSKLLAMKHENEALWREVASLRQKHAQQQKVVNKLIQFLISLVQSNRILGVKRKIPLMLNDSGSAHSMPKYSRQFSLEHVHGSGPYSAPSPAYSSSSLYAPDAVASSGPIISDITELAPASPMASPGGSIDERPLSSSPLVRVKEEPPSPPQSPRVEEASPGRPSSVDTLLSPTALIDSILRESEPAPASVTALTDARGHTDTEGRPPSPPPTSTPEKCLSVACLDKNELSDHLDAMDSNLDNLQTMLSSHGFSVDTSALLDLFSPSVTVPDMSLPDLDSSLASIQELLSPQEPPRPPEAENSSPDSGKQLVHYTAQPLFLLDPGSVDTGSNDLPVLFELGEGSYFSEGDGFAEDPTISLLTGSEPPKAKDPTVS

| Sequence | binding signal (HSF1) | binding signal (ELF2) |
| --- | --- | --- |
| CATACA | 0.817 | 0.999 |
| ATTGTG | 0.876 | 0.89 |
| ACACCA | 0.806 | 0.942 |
| CACAGC | 0.78 | 0.987 |
| CATTCT | 2.56 | 1.28 |
| GGCAAT | 0.847 | 0.969 |
| GCCCGC | 0.887 | 1.01 |
| GCCCTC | 0.987 | 1.07 |
| CCCCAA | 1.06 | 1.11 |
| TGCAGC | 0.872 | 0.983 |
| GGCCTG | 0.765 | 0.867 |
| ATAGAT | 1.42 | 1.13 |
| AGCATA | 1.04 | 0.93 |
| GGCCTT | 1.05 | 1.11 |
| CGCCGG | 0.677 | 1.05 |
| CTTCGA | 2.52 | 1.33 |
| TCACCT | 1.03 | 1.09 |
| GAAGAA | 1.46 | 1.32 |
| CGCTGC | 0.89 | 1.13 |
| ATAACG | 0.938 | 1 |
| TCACTA | 1.16 | 1.11 |
| ACAATG | 0.877 | 1.06 |
| GCTGGT | 1.06 | 1.11 |

A few values from the results shown.
ATAACG | binding signal (ELF2): 1
GGCCTT | binding signal (HSF1): 1.05

Next records

| Sequence | binding signal (HSF1) | binding signal (ELF2) |
| --- | --- | --- |
| TATGAG | 0.923 | 0.951 |
| GTTACA | 0.886 | 1.12 |
| TCAATT | 1.1 | 1.17 |
| AGCGAC | 0.931 | 1.14 |
| TAGATG | 1.66 | 1.16 |
| AGTACA | 0.893 | 1.17 |
| CGTAAC | 0.925 | 1.13 |
| AACGCA | 0.888 | 1.02 |
| TTTCAA | 1.23 | 1.29 |
| GACTTG | 0.73 | 0.798 |
| CCGGTC | 0.552 | 1.19 |
| TTACTA | 1.79 | 1.26 |
| GTGTAC | 0.72 | 0.914 |
| TGGAAG | 1.56 | 0.968 |
| ACGTTG | 0.896 | 1 |
| GAAAAT | 1.49 | 1.17 |
| CCAAAC | 0.94 | 1.08 |
| CAATGA | 0.873 | 0.943 |
| TACGCG | 1.17 | 1.13 |
| GAACTT | 2.03 | 1.87 |
| CGAGAT | 1.52 | 0.811 |
| CTGCGT | 0.93 | 1.11 |
| CGTTGC | 0.874 | 1.08 |

| Sequence | binding signal (HSF1) | binding signal (ELF2) |
| --- | --- | --- |
| TAACCG | 0.906 | 1.18 |
| CAAAGA | 1.1 | 0.916 |
| AAATAA | 1.48 | 1.46 |
| AATGTT | 2.33 | 1.5 |
| AATTAC | 1.43 | 1.33 |
| TACCCC | 0.866 | 1.1 |
| GAGCTC | 0.93 | 0.901 |
| CAGCTA | 0.952 | 0.984 |
| CCCATC | 0.895 | 1.13 |
| CTCGGC | 1.31 | 1.34 |
| TATCTG | 1.36 | 1.21 |
| GTATGA | 0.814 | 0.953 |
| GTGGAT | 1.01 | 0.868 |
| GCGCCT | 0.985 | 0.993 |
| GCCCCG | 0.879 | 1.03 |
| GATAGC | 0.889 | 1.05 |
| GTAGCT | 0.926 | 1.12 |
| TCTGTA | 1.31 | 1.14 |
| GCCTAC | 1.01 | 1.21 |
| CCCTAT | 1.13 | 1.34 |
| TAAATG | 1.37 | 1.23 |
| GGTAAC | 0.826 | 1.01 |
| AACCAC | 0.997 | 1.14 |

| Sequence | binding signal (HSF1) | binding signal (ELF2) |
| --- | --- | --- |
| AGTGAC | 0.77 | 1.07 |
| GAATGA | 1.15 | 0.923 |
| TTTGTG | 1.12 | 1.1 |
| CGCCCA | 0.892 | 1.01 |
| AAGTGC | 0.973 | 1.41 |
| CTACAC | 1.11 | 1.25 |
| ACCCTT | 1.09 | 1.22 |
| AAAGGG | 0.982 | 1.12 |
| GTCCTC | 0.924 | 1.14 |
| GTTTTT | 1.21 | 1.36 |
| CTTGCT | 1.24 | 1.32 |
| CGGATG | 0.748 | 1.92 |
| CGGACC | 0.624 | 0.856 |
| TCTCCA | 1.91 | 1.39 |
| AAATAG | 1.09 | 1.21 |
| CATAAA | 1.07 | 0.986 |
| TGGGCG | 0.768 | 0.823 |
| CCACAT | 0.976 | 1.2 |
| TAGCAG | 1.12 | 1.03 |
| TAATCC | 4.27 | 1.18 |
| TCCTTA | 1.54 | 1.7 |
| AGTATT | 1.35 | 1.24 |
| CAAACT | 0.992 | 1.13 |

| Sequence | binding signal (HSF1) | binding signal (ELF2) |
| --- | --- | --- |
| CCGGTT | 0.922 | 2.5 |
| AGGCTA | 0.985 | 0.907 |
| GTGGTT | 0.724 | 0.889 |
| TTCCTA | 1.59 | 2.04 |
| CACACC | 0.757 | 1.02 |
| TGTCAC | 0.861 | 1.15 |
| ATCAAG | 1.03 | 0.899 |
| GACATG | 0.722 | 0.941 |
| CGGTTA | 0.804 | 0.998 |
| GCTACT | 1.07 | 1.29 |
| CACCGC | 0.797 | 0.991 |
| TATAAT | 1.82 | 1.18 |
| GGTCCA | 0.722 | 0.883 |
| CAATTT | 1.15 | 1.42 |
| CCTTTA | 1.31 | 1.32 |
| TCCATG | 1.1 | 1.07 |
| AGCATC | 1.02 | 1.02 |
| GCCCTA | 1.13 | 1.16 |
| CCTTCC | 1.81 | 3.41 |
| ACGCGA | 1.04 | 0.813 |
| TGCATG | 0.853 | 1.03 |
| CTCCGA | 1.49 | 1.29 |

Three entries drawn at random from the list so far:

| Sequence | binding signal (HSF1) | binding signal (ELF2) |
| --- | --- | --- |
| GCCCTA | 1.13 | 1.16 |
| CACACC | 0.757 | 1.02 |
| ATCAAG | 1.03 | 0.899 |
